Experimental data reported in patent US8980543B2 (Canon Kabushiki Kaisha, priority 2007, dated 2015).

Assay: general procedure: Fmoc solid-phase peptide synthesis; Rink amide resin; HBTU/HOBt/DIEA
Details: whole synthesis, scale 0.2 mmol

Substance: H-GPLGVRGK-NH2
- isolated mass: 93 mg
- isolated yield: 60%
